Measurements published in PMC6616311, “Reconstitution of Microtubule Nucleation In Vitro Reveals Novel Roles for Mzt1” (Current Biology, 2019).
Results are given in words; binding and its absence hold for the method and conditions named. For some assays here: In cells and extracts the contact can be indirect. Some results given as binding are weak or reduced against the parent protein; the word gives no strength. For some assays here: Sequences can lack the tags named with a protein.

Protein sequences, listed by entry. Tags and fused reporters are not part of them. Lines headed by an entry give the natural chain unless they say otherwise; changes in a name come on top.
UniProt P25295: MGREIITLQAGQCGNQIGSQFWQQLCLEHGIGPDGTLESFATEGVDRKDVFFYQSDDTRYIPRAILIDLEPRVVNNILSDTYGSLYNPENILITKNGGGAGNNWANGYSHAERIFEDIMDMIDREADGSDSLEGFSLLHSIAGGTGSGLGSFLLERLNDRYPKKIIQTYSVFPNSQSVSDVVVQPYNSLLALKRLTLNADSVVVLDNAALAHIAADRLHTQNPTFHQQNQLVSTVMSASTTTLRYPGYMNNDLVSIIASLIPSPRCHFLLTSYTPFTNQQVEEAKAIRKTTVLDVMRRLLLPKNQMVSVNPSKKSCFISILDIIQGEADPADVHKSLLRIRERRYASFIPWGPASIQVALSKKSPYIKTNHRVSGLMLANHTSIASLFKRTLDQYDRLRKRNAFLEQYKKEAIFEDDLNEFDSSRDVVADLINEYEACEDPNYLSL

Legend:
Alp4-MBP (S. pombe) = molecular target: T1, Alp4-MBP (S. pombe) (UniProt Q9Y705); test: pull-down; amylose (MBP) purification of Alp4-MBP coexpressed with Mto1/2[bonsai], in the absence or presence of Mzt1, without other γ-TuSC proteins; SDS-PAGE
T1 sequence: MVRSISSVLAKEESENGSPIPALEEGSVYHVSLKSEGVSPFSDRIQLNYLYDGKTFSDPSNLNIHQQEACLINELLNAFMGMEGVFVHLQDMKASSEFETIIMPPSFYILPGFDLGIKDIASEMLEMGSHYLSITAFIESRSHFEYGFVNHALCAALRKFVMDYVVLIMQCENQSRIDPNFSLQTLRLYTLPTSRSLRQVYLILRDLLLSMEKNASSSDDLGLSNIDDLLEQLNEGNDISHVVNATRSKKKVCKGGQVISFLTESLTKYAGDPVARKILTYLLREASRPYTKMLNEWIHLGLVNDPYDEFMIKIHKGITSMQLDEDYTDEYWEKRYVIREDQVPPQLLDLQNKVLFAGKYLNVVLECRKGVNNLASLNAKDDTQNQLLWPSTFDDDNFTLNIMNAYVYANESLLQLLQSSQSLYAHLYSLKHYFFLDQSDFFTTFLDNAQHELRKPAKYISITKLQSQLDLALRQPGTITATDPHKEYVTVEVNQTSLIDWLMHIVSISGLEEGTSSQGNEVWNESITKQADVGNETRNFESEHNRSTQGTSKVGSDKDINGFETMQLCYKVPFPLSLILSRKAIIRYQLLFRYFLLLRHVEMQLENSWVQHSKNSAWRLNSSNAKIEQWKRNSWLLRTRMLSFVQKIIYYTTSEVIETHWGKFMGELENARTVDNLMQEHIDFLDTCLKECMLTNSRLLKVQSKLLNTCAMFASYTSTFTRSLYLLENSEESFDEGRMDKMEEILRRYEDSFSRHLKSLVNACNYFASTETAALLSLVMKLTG

Alp6-MBP = molecular target: T2, Alp6-MBP (S. pombe, UniProt Q9USQ2 1-832); test: pull-down; amylose resin purification via Alp6-MBP from High Five cells coexpressing γ-TuSC^Alp6-MBP proteins, Mto1/2[bonsai] and Mzt1 (MGM holocomplex); HB100 buffer, 4°C, SDS-PAGE
T2 construct: Alp6, S. pombe γ-TuSC protein, homolog of human GCP3; also called Alp6 (homolog of human GCP3) with C-terminal MBP-6xHis tag; tagged subunit of γ-TuSC^Alp6-MBP; source: High Five insect cells (MultiBac baculovirus), coexpressed with partners; in lysate, and purified on amylose; not shown: MBP, C-terminal, kept; 6xHis, C-terminal, kept
T2 sequence (looked up): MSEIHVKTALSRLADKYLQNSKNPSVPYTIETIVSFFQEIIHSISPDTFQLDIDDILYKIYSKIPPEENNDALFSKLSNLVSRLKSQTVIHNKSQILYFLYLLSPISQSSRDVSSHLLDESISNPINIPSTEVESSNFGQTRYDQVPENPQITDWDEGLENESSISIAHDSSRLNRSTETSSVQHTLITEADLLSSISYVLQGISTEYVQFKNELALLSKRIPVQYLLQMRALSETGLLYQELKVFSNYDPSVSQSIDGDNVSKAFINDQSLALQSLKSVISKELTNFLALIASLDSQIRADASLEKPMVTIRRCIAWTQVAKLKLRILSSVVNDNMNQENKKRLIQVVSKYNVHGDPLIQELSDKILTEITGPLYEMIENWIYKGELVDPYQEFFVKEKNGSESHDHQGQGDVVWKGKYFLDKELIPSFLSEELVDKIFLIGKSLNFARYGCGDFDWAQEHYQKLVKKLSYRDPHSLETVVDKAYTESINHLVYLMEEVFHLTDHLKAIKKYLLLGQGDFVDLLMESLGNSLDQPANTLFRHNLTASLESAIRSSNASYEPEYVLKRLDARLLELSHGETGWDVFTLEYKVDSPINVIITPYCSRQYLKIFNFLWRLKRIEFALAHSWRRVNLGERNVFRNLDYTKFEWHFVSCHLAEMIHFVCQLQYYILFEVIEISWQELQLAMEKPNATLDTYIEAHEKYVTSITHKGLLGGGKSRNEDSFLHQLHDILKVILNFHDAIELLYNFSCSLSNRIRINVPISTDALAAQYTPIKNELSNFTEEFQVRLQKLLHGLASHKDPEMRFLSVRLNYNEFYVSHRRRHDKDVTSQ

[1] = molecular target: γ-TuSC^Alp6-MBP:Mzt1 complex (S. pombe) (UniProt Q9USQ2+Q9Y705+P25295+P0CF96); test: co-sedimentation; 10-30% glycerol density gradient in HB100, 55,000 rpm, 4°C, 45 or 80 min; 50 μL of each purified complex at 1 mg/mL mixed and incubated 15 min at 4°C before loading; both purified
[2] = molecular target: T3, 6xHis-Mto1[bonsai] (S. pombe) (UniProt O94488); test: pull-down; purification of Mto1/2[bonsai] via the 6xHis tag on Mto1[bonsai]: ammonium sulfate cut, Ni2+ Fractogel, then Superose 6 in HB100
T3 sequence: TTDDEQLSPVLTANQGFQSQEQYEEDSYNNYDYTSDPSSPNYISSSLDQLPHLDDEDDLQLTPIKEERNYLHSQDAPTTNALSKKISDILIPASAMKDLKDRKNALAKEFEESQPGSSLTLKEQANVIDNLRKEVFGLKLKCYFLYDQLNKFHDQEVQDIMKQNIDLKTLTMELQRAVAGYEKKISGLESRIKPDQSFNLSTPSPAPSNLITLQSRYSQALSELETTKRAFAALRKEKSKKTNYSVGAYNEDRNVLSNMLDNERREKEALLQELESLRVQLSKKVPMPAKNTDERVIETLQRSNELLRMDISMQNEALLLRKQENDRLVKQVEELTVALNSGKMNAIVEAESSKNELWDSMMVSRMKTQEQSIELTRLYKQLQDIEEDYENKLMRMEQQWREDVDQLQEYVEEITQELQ

[3] = molecular target: T4, Alp4-MBP (S. pombe), Q9Y705; test: pull-down; amylose (MBP) purification of Alp4-MBP or Alp6-MBP coexpressed with Mzt1 only; SDS-PAGE; settings: remark: other sources report otherwise
T4 chain: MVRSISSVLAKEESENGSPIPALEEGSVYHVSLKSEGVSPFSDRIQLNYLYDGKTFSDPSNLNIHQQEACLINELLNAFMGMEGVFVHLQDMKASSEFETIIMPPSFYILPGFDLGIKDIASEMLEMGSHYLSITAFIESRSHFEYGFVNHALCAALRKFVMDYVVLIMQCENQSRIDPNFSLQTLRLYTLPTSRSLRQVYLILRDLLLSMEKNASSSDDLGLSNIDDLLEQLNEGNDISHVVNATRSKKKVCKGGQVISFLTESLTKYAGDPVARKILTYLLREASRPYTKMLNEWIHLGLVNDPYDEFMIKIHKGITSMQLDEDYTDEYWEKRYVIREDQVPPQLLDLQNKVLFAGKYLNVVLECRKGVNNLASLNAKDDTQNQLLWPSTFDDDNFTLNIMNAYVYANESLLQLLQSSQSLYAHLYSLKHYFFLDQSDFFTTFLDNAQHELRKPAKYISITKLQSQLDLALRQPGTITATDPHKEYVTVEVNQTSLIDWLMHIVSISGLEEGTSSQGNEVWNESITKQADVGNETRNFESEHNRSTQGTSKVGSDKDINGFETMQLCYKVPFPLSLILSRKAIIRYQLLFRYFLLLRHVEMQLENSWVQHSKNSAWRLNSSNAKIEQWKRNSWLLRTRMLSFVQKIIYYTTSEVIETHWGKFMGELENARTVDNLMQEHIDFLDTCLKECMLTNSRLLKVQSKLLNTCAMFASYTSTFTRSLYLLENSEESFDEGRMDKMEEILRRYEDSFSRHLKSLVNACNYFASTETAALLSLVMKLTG

B1: Mto1/2[bonsai] complex (complex, S. pombe)
chain 1: TTDDEQLSPVLTANQGFQSQEQYEEDSYNNYDYTSDPSSPNYISSSLDQLPHLDDEDDLQLTPIKEERNYLHSQDAPTTNALSKKISDILIPASAMKDLKDRKNALAKEFEESQPGSSLTLKEQANVIDNLRKEVFGLKLKCYFLYDQLNKFHDQEVQDIMKQNIDLKTLTMELQRAVAGYEKKISGLESRIKPDQSFNLSTPSPAPSNLITLQSRYSQALSELETTKRAFAALRKEKSKKTNYSVGAYNEDRNVLSNMLDNERREKEALLQELESLRVQLSKKVPMPAKNTDERVIETLQRSNELLRMDISMQNEALLLRKQENDRLVKQVEELTVALNSGKMNAIVEAESSKNELWDSMMVSRMKTQEQSIELTRLYKQLQDIEEDYENKLMRMEQQWREDVDQLQEYVEEITQELQ
chain 2: MSEHNYQSDREVAEDPFLNYEASANQLSSNSRESTPRGSPWRAGMRSASLMTEPLEDSMYSDNNYLDNGVSFTKDENPLYSPSWPSLADANVNSMKSNNAIQEHKAAKFVSEKSLEKVSTADNNLVLQELENLRERLNQVELQLSERPSSYLGYHNNLSPYRSPNSYPSLLPSTHSPHSPAPLSTMQTALMRLRTYHPSPIILKPVEQAVNHAITLVNTSPSSVVDALCRSLAELCLGLVQEAIDASILSQQESSNSLDLVRHTPPLNYTSSVDSSPQRMASDSYGRPSLHLNDPFPSVDLQSNELSHHNVRTTLFSDDSRFHSKIHTHSTPPSQMYSAASHFRYRSDPSTRHVSNSTNKSSLHPSPTSLRVAHPIIPQRASPASQSFPSLQDTPSP
notes: Mto1 of S. pombe, amino acids 131-549 (Mto1[bonsai]); as m7; Mto2 of S. pombe; as m8; Copy numbers of the two chains in the complex are not measured here; also called 6xHis-Mto1/2[bonsai]; source: High Five insect cells (MultiBac baculovirus); coexpressed in lysate, or purified (ammonium sulfate, Ni2+ Fractogel, Superose 6); not shown: 6xHis, N-terminal, kept
binding (Alp4-MBP (S. pombe)): binds | binding (Alp6-MBP): binds | binding [1]: binds

B2: Mto2 (protein, UniProt Q9USP7 1-397)
chain: MSEHNYQSDREVAEDPFLNYEASANQLSSNSRESTPRGSPWRAGMRSASLMTEPLEDSMYSDNNYLDNGVSFTKDENPLYSPSWPSLADANVNSMKSNNAIQEHKAAKFVSEKSLEKVSTADNNLVLQELENLRERLNQVELQLSERPSSYLGYHNNLSPYRSPNSYPSLLPSTHSPHSPAPLSTMQTALMRLRTYHPSPIILKPVEQAVNHAITLVNTSPSSVVDALCRSLAELCLGLVQEAIDASILSQQESSNSLDLVRHTPPLNYTSSVDSSPQRMASDSYGRPSLHLNDPFPSVDLQSNELSHHNVRTTLFSDDSRFHSKIHTHSTPPSQMYSAASHFRYRSDPSTRHVSNSTNKSSLHPSPTSLRVAHPIIPQRASPASQSFPSLQDTPSP
binding [2]: binds

B3: Mzt1-6xHis (natural protein, S. pombe, UniProt P0CF96 1-64, looked up)
chain: MSESTKETIEVLYEIGTLLGTELDKTTLSLCISLCENNVHPEAIAQIIREIRMAQEQTVDTEPS
notes: Mzt1 of S. pombe; also called MOZART1 homolog; source: High Five insect cells (MultiBac baculovirus); coexpressed in lysate, co-purified in complexes, or purified alone (Ni2+ IMAC, Superdex 75); not shown: 6xHis, C-terminal, kept
binding [3]: no binding
